Source: PubChem BioAssay AID1159506 (NCATS, 2015).

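Genome-wide siRNA knockdown in TC32 Ewing sarcoma cells, comparing luciferase light from an NR0B1-promoter reporter with a CMV-promoter reporter 48 hours after transfection.
Each siRNA was applied at 20 nM.
A z-score of the log NR0B1-over-CMV signal, less the median of siRNAs with the same seed; more negative means a stronger specific loss of the NR0B1 reporter.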

The strongest results of the screen are mostly left out here.
Sequences are the guide (antisense) strand, without overhang.

strand,target gene,seed-corrected z-score
UCAUUGAUAGUCCCGGUCC,AEBP1,0.2003
UUCUGGUCUGAAGUAACUG,FAM234B,0.7666
UGUCUGGACAAUACUUUGA,MBOAT7,0.449
UUCAUGAUCAGCACCCGGU,ABHD14B,0.8028
AAAAGGUCAAGUGCUACCG,AKT1,0.008962
UCUCGUAACAGAAGCUCCG,SEC16A,1.174
UGAAGAAUUUGUACUGGGC,RNASE6,0.3427
UUUAGUUCUUGGAUCAAUC,WDR75,-0.3202
UUUGGUCCUAUUAGCAUGG,TMEM200B,-1.431
UCUUAGUCUUCGAUGAGGG,SIMC1,0.2632
UUAGUUCUUUGAUUUGCUC,TSC22D1,-0.0876
UGAGUGACCAGAGUUUCAC,CILP,0.2227
UACUCAUCAACAUUUGUUG,HIST1H2AG,-1.392
UCUGGGAAGACGAUGUUGU,LCN12,0.7159
UUUCAGGCUACUAUGGCUU,FLJ26245,0.535
UUACUAACCACAUCAUCAG,EFR3A,0.179
UAGAGUACAGUCACUACCG,TXNDC15,-0.1375
AAAGGUUACCUUGUCCCGC,DOK2,0.2496
AAUGGUUACAUUUUCUUUG,LY9,-0.3752
UAGUAUUGUAGAAAGUCUC,EIF4A2,-0.6028
UCUCCAUCCAGUAAGCUUC,NT5DC3,0.07332
UACAUAUGCACAGUCUGUC,GPR15,-0.5142
UCAGAAAACAGAUAUGCUG,CLPS,-0.1731
UCUGGAUCUCUCAUAAUCC,NRAP,-0.4336
AUUCGGUUUACAAAUCGCC,NEDD4,-0.4697
AAACAUCACAUGCUGGUAG,CH25H,-0.9897
AACAGGACGAGUUUCAGGG,ZNHIT3,-1.541
UCCACUUGCAUGGUAUUGC,RPGRIP1,-0.8522
UGUUUGAUCUCACAGAAGC,CHCHD2P6,-1.655
UUCGUCAUGACGGCCGUCU,MATK,-0.4718
UGAGGUACUCCACUGUCUG,LARP7,-0.9077
UACCUCGAAGGUUGUCACU,PCDH11Y,-0.331
UUUCUUUCCGUGUUGGUUC,RRAS2,-0.3193
UACGUUUUCUAUGCAGCCG,CNTNAP1,-0.8421
UCUAAUCCAAGACUCGGCC,MUC4,0.0554
AACUGAGUAACUGCUGAAG,OR4K15,-1.053
UACCGUAUUUUCUCUGAUC,NARS,-0.451
AUUGUCUUAUGGAAUCUCC,ZNF114,-1.28
UGCAGAGUCAGUUCACAGC,UROD,-0.1061
UAACUUGUCACCGAUAAAG,ADCY7,1.049
UUUUGAGCUACAAUUAGCC,SH3RF1,-0.09126
UUUCUGACAAGUGGGCUCG,RBM10,-0.7773
UUCUUGAGAGCGGCCAAAG,HIST1H1E,-0.3059
UUCUUGUACCCGCAGAACG,GORASP2,0.482
UAAAUCGAAUCAUUCCUUC,WDHD1,0.4156
UAAAUCCAGCUAGCAUUCC,TMEM242,-0.1306
AACAGGAUGAUAACUCUGG,RPS15AP25,-0.1969
UAGGCAAUCACUCCGAUGG,CAMK1D,0.1596
UCCUCUAUAGCAUUUCUUC,RTP3,-0.9943
UUACUAGAAUAUUUGAAGG,ZNF670,-0.2582
UGAGUAGAGGUAUUCCACC,NCAPH2,0.5978
UUCUAUUAUACUUUCUUCC,MAFG,0.4844
UAUGAUCUUUGCACCAUGA,EMC8,0.3219
UCUACAACGAUGCUGGUGC,CYP4B1,-0.4546
UAUUGGGUGAGGACAUGCC,ESPN,1.554
UUUGGUUGUAGCAUGCUGC,RNF25,-0.58
AAAGUCAUUUUUGAUAUUG,SKP1,0.6293
AAAGUUUAUCCACUUGAUU,ROPN1L,1.108